{"source": "paper PMC9830214", "binders": {"B1": {"name": "FLAG-TMEM63B-QL (protein, UniProt Q3TWI9 1-832)", "chain": "MLPFLLATLGTAALNSSNPKDYCYSARIRSTVLQGLPFGGVPTVLALDFMCFLALLFLFSILRKVAWDYGRLALVTDADRLRRQERERVEQEYVASAMHGDSHDRYERLTSVSSSVDFDQRDNGFCSWLTAIFRIKDDEIRDKCGGDAVHYLSFQRHIIGLLVVVGVLSVGIVLPVNFSGDLLENNAYSFGRTTIANLKSGNNLLWLHTSFAFLYLLLTVYSMRRHTSKMRYKEDDLVKRTLFINGISKYAESEKIKKHFEEAYPNCTVLEARPCYNVARLMFLDAERKKAERGKLYFTNLQSKENVPAMINPKPCGHLCCCVVRGCEQVEAIEYYTKLEQRLKEDYRREKEKVNEKPLGMAFVTFHNETITAIILKDFNVCKCQGCTCRGEPRASSCSEALHISNWTVTYAPDPQNIYWEHLSIRGFIWWLRCLVINVVLFILLFFLTTPAIIITTMDKFNVTKPVEYLNNPIITQFFPTLLLWCFSALLPTIVYYSAFFEAHWTRSGENRTTMHKCYTFLIFMVLLLPSLGLSSLDLFFRWLFDKKFLAEAAIRFECVFLPDNGAFFVNYVIASAFIGNAMDLLRIPGLLMYMIRLCLARSAAERRNVKRHQAYEFQFGAAYAWMMCVFTVVMTYSITCPIIVPFGLMYMLLKHLVDRYNLYYAYLPAKLDKKIHSGAVNQVVAAPILCLFWLLFFSTMRTGFLAPTSMFTFVVLVITIVICLCHVCFGHFKYLSAHNYKIEHTETDAVSSRSNGRPPTAGAVPKSAKYIAQVLQDSEGDGDGDGAPGSSGDEPPSSSSQDEELLMPPDGLTDTDFQSCEDSLIENEIHQ"}}, "molecular_target": "HA-TMEM63B-QS (mouse)", "experiment": "co-IP; HEK293T cells co-expressing HA-TMEM63B-QS and FLAG-TMEM63B-QL or -QS; lysate (RIPA buffer), anti-HA antibody at 4 °C overnight, Protein G agarose beads, eluted with 0.1 M glycine pH 2.5; blot for FLAG", "note": "No constants are given. Whether binding was seen depends on the method and setting. Binding seen in cells or lysates may run through a third protein. Binding can be weak; no strength is given. Where a sequence is shown, tags or fusion partners need not be part of it.", "data": [{"binder": "B1", "values": [{"measurement": "binding", "result": "binds"}]}]}
